Test results taken from paper PMC8629386.
Results are given in words; binding and its absence hold for the method and conditions named. Binding calls can cover weak binding; strength is not graded here. Sequences can lack the tags named with a protein. For some of these results: In cells and extracts the contact can be indirect.

Protein sequences, listed by entry. Tags and fused reporters are not part of them. Lines headed by an entry give the natural chain unless they say otherwise; changes in a name come on top.
UniProt Q8I1T8: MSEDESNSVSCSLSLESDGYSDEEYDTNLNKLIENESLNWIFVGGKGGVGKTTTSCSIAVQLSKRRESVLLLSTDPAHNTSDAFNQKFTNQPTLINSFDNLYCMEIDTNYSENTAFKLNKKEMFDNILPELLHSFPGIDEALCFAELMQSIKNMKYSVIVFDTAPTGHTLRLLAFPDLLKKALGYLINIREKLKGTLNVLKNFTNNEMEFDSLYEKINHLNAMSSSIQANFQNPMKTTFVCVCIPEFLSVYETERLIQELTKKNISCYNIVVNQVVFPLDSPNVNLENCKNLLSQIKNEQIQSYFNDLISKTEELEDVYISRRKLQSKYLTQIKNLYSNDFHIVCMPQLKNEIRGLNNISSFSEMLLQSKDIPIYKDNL

T1: 6×his-PfBOS1 (P. falciparum 3D7) (UniProt Q8IIP9)
T1 sequence: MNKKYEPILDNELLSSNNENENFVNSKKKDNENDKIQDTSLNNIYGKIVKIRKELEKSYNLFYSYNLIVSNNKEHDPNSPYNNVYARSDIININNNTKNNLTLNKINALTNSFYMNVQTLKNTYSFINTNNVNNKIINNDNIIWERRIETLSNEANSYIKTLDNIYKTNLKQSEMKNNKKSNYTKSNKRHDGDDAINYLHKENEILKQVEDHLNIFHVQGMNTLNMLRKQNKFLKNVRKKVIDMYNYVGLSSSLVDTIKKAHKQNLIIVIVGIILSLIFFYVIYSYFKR

T2: 6×his-PfUSE1 (P. falciparum 3D7) (UniProt Q8IBY2)
T2 sequence: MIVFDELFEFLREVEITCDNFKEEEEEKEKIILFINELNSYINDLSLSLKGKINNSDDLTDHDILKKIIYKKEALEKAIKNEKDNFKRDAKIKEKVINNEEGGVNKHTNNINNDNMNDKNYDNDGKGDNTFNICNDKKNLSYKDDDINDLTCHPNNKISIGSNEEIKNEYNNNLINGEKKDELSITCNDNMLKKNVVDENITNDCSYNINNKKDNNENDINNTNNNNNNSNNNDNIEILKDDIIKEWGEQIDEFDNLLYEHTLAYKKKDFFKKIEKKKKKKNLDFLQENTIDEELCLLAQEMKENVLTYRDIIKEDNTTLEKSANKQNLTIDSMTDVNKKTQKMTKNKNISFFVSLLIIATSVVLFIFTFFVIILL


Assays:
[1] = molecular target: T1, 6×his-PfBOS1 (P. falciparum 3D7); assay: pull-down; 6×his-tagged TA protein and PfGet3 co-expressed in E. coli Rosetta (DE3) from pCDFDuet-1; soluble crude lysate on Ni^2+-NTA resin, 2 h at 4°C, 50 mM Tris.HCl pH 8, 500 mM NaCl, wash with 40 mM imidazole; western blot with anti-PfGet3 and anti-His
[2] = molecular target: T2, 6×his-PfUSE1 (P. falciparum 3D7); assay: as above
[3] = molecular target: recombinant PfGet3-6×his (P. falciparum 3D7) (UniProt Q8I1T8); assay: pull-down; purified MBP fusion or MBP (2–5 μg) incubated with purified PfGet3-6×his 2 h at 4°C in 50 mM Tris.HCl pH 8.0, 200 mM NaCl, 0.1% NP-40, 20 mM imidazole, 1 mM DTT, 1 mg/ml BSA; captured on Ni^2+-NTA beads; western blot with anti-MBP and anti-PfGet3; both purified

Molecule | binding [1] | binding [2] | binding [3]
recombinant PfGet3 co-expressed from pCDFDuet-1 (from UniProt Q8I1T8) | binds | binds | 
recombinant MBP-PfGet4 (protein, UniProt Q8IL82 1-277) MKKFKFSKEKLAKEKIENGLHYEAHQLIKSIINRKLQKNQISNCISVIFYFSLKFATAEQYVLLCDLMYQCCLILTQHDIEFNLEYANKIIEIFQKCPPNSTEEKYKFMNKSILWSKSEENVYGYLEFHKVIGYAYFEDKQYSLAHNHFIYLDDNDILYEIICLWRKEAYPSESHFFVLRTILCLLVLDKFDQALNLINMFETNLNRQDVPLPIQLAYLITSSCIYKSLALYEDVKYKYRLILNYDPDFQKYINIIDAAVFNKKKHNLFSMFQNIFA |  |  | binds
MBP-PfGet2^CD (domain or fragment, UniProt O96235 1-246) MDKNTLKRRSRLLQKNEARMSMLLGRNLDDEISKEKKESNKNDKHKKNDQHKKNDKSNQNGEDNQNGEDNQNDESNQNDEHKKNDEHKKNDEHNQNDEHNQNDEHNQNDEHNQNDEHNQNDEHNQNDEHNQNDEHNQNDESNQNDKNRKEIPPKEEKDKENNPSVVMENNNNIRKDQDNKTSEHKSSTNIYNKDKNNDYNKLLDKDDNNNNNKNINKNDENDFTSINNDIPNKNKITSQFIITKHE |  |  | binds
